These are yes or no findings as the source states them, for the method shown. Binding seen in cells or lysates may run through a third protein. These calls come from enrichment with a bait or labelling near it, and not all partners need be listed. Sequences can lack the tags named with a protein.
B1: Homer protein homolog 3 (Homer3), endogenous in U251 lysate (protein, UniProt Q9NSC5 1-361)
chain: MSTAREQPIFSTRAHVFQIDPATKRNWIPAGKHALTVSYFYDATRNVYRIISIGGAKAIINSTVTPNMTFTKTSQKFGQWADSRANTVYGLGFASEQHLTQFAEKFQEVKEAARLAREKSQDGGELTSPALGLASHQVPPSPLVSANGPGEEKLFRSQSADAPGPTERERLKKMLSEGSVGEVQWEAEFFALQDSNNKLAGALREANAAAAQWRQQLEAQRAEAERLRQRVAELEAQAASEVTPTGEKEGLGQGQSLEQLEALVQTKDQEIQTLKSQTGGPREALEAAEREETQQKVQDLETRNAELEHQLRAMERSLEEARAERERARAEVGRAAQLLDVSLFELSELREGLARLAEAAP

The chains behind the UniProt entries cited, without tags or fusion partners. Where a name states a change or a piece, a line headed by the entry shows the natural chain unless it says otherwise. A line that says so, or that is headed by a name, gives the form on record, which may keep a tag or linker.
neural precursor cell expressed developmentally down-regulated protein 4 (NEDD4), endogenous in U251 lysate (P46934-4, form named): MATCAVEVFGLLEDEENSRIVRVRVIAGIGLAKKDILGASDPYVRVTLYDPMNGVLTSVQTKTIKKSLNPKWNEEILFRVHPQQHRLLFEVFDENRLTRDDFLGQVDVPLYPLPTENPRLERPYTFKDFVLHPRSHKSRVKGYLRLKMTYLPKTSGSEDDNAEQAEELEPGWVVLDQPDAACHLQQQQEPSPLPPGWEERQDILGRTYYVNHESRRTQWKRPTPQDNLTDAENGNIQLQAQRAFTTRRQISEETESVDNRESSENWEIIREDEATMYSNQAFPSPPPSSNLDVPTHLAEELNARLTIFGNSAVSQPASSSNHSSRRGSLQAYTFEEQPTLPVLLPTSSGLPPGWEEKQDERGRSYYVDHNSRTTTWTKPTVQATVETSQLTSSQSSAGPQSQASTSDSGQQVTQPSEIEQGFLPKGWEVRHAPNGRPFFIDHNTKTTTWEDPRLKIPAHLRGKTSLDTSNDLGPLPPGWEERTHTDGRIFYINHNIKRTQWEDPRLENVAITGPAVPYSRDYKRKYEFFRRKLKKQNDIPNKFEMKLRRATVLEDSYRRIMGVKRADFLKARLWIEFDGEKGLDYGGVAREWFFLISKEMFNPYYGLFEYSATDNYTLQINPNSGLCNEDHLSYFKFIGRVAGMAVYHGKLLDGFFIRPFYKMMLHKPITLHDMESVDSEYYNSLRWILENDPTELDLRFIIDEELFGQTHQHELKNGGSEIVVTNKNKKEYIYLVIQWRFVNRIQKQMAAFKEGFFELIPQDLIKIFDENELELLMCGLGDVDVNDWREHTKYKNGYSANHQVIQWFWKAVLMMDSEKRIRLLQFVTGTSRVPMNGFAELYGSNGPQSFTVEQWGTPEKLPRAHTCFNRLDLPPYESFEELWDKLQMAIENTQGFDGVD
UniProt P07437: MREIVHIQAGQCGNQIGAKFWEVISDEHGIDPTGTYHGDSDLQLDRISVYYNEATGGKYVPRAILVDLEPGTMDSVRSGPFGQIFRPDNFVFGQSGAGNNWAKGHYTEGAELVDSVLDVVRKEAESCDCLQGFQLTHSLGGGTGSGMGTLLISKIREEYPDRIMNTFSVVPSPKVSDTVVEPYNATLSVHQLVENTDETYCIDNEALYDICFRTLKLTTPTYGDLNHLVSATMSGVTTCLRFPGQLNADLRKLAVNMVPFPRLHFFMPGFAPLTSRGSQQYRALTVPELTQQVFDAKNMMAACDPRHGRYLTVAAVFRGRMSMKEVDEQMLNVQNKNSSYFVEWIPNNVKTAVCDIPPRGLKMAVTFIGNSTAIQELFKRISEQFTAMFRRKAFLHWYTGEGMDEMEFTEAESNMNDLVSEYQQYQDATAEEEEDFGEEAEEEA
UniProt P06733: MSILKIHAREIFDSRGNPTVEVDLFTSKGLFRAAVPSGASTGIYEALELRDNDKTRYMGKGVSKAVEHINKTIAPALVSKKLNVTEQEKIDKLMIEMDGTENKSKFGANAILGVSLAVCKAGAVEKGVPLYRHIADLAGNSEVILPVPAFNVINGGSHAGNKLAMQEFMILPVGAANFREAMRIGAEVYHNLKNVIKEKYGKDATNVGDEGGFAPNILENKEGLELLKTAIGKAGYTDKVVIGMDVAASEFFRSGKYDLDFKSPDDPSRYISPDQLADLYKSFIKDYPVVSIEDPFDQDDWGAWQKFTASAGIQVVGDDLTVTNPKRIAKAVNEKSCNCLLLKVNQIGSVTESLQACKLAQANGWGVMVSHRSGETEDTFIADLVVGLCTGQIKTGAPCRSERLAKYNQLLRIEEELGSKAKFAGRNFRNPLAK
UniProt P50552: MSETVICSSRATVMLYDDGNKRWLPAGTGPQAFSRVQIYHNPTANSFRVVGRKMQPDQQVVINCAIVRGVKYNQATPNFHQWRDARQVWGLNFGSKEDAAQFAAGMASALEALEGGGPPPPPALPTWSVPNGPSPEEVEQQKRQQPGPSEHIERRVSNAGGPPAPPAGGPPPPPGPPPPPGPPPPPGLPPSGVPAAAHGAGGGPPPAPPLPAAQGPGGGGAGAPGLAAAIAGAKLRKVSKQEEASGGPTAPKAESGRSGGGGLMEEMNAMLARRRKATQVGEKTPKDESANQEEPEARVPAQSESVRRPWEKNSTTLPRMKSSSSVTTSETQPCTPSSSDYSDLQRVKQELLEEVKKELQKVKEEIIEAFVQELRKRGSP
GFAP, endogenous in U251 lysate (P14136-3, form named): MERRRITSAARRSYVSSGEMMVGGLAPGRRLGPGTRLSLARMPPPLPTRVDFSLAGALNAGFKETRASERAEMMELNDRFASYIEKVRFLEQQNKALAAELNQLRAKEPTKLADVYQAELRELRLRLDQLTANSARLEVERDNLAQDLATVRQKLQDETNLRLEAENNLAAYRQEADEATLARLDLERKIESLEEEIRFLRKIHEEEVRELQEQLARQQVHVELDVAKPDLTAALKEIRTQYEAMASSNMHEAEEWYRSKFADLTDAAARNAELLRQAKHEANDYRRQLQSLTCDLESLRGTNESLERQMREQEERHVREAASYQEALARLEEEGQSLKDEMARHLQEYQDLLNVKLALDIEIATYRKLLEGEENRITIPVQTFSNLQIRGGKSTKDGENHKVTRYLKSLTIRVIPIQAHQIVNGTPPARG
UniProt P08670: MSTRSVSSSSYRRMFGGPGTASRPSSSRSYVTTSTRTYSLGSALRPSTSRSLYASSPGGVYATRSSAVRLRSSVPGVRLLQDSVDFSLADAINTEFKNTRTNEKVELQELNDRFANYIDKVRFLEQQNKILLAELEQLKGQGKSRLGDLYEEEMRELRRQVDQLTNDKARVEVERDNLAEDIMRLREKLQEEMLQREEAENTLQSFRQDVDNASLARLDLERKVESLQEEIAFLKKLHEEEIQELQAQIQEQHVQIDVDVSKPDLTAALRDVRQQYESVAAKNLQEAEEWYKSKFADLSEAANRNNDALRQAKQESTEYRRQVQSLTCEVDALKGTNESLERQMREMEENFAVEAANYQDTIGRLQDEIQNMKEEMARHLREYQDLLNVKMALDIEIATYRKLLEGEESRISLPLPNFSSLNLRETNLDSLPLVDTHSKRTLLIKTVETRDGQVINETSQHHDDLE
ITCH, endogenous in U251 lysate (Q96J02-2, form named): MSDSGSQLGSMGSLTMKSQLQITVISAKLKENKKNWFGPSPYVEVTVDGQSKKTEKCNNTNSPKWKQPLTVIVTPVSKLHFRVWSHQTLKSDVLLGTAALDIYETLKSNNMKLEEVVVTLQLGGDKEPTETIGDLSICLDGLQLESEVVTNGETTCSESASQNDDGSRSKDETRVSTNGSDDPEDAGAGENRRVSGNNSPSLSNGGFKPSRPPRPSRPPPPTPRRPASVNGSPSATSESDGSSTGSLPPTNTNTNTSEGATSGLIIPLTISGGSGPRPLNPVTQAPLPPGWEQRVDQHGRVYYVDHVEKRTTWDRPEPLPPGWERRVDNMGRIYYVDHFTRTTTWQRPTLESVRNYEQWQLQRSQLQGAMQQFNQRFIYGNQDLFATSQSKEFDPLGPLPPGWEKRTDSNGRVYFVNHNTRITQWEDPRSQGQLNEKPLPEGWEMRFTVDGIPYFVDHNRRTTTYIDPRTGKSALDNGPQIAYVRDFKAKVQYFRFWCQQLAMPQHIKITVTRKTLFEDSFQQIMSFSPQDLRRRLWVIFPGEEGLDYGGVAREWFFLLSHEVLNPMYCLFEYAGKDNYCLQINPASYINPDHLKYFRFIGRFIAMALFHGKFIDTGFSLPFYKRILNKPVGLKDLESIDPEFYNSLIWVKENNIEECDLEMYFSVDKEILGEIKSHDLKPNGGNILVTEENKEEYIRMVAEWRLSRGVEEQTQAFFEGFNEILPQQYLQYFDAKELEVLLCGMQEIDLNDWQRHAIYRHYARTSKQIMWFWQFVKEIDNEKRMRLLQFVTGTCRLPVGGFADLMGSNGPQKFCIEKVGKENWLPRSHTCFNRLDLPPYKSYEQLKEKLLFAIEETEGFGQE

What follows are molecules tested against T1, recombinant human GST-WBP2 protein (WW domain-binding protein 2) (human) (UniProt Q969T9) (assay: affinity purification with mass spectrometry; GST-WBP2 immobilized on glutathione resin, incubated with U251 lysates (30 mg, overnight, 4 °C), washed three times with lysis buffer; SDS-PAGE, trypsin digestion, LC-MS/MS; GST alone as negative control; only the target purified).
T1 sequence: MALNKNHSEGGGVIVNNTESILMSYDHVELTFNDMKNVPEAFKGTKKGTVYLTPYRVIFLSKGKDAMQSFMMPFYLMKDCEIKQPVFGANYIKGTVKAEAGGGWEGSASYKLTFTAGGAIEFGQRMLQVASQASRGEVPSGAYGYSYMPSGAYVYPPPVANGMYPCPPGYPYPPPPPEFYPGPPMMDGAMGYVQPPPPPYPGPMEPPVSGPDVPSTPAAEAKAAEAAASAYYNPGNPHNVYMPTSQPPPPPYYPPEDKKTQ

binding, binds:
neural precursor cell expressed developmentally down-regulated protein 4 (NEDD4), endogenous in U251 lysate (from UniProt P46934-4 1-900) (enzyme)
Tubulinβ, endogenous in U251 lysate (from UniProt P07437 1-444)
α-enolase (ENO1), endogenous in U251 lysate (from UniProt P06733 1-434) (enzyme)
VASP, endogenous in U251 lysate (from UniProt P50552 1-380)
GFAP, endogenous in U251 lysate (from UniProt P14136-3 1-431)
VIM, endogenous in U251 lysate (from UniProt P08670 1-466)
ITCH, endogenous in U251 lysate (from UniProt Q96J02-2 1-862) (enzyme)
B1

— paper PMC5832848
